Measurements reported in PubChem BioAssay AID1224826 (NIAID, 2016).

Aim: 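Knock-downs that raise or lower Tnf reporter signal after endotoxin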 (primary screen)
Cell system: RAW264.7 G9 macrophages from mouse bearing reporters for p65 (GFP) and the Tnf promoter (mCherry)
Reagent: siRNA pool against mouse genes, 100 nM
Time to read-out: 16 h of LPS stimulation, after 2 days of siRNA transfection
Treatment: bacterial lipopolysaccharide (Salmonella minnesota R595), 10 ng/ml
Measured: 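Imaged Tnf reporter mCherry in nuclei, minus background, normalised per plate to the median and expressed as robust z-scores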
Direction: Tnf reporter robust z-score: higher = stronger Tnf promoter reporter signal after LPS
Call rule: 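Called active when robust z-score is at most -1.3, matching the median of the Tlr4 knock-down control, or over 3; control wells and wells with under 50 cells never active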
Meaning of the calls: active = Tnf reporter clearly lowered or raised; inactive = no clear change in Tnf reporter
Shown is one part, drawn at random, of about 17,000 reagents. About 1,110 of them (6.6%) count as active. 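Active means lowered or raised reporter signal; replicate intensities are raw and not normalised per plate.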 Unmarked entries are inactive. Not all columns of the deposit are shown.

Gene	Tnf reporter robust z-score	fewer than 50 cells in well
Or8j3b	0.93	enough cells in well
Cyb561	1.53	enough cells in well
Cd300ld	-0.73	enough cells in well
Slc39a10		fewer than 50 cells per well; well left out of calls
Med30	-0.06	enough cells in well
Xpc	-0.26	enough cells in well
Jsrp1		fewer than 50 cells per well; well left out of calls
Utf1	-0.18	enough cells in well
Lrig3	0.54	enough cells in well
Nutm1	-1.49 (active)	enough cells in well

Copied from the list.
Entry of Nutm1 in “fewer than 50 cells in well”: enough cells in well (active)
Under “Tnf reporter robust z-score”, Xpc has -0.26

Further results follow:
Gene	Tnf reporter robust z-score	fewer than 50 cells in well
Ube2g2	1.39	enough cells in well
Tmem94		fewer than 50 cells per well; well left out of calls
Phf13	-0.26	enough cells in well
Dmd	-0.09	enough cells in well
Rgn	0.93	enough cells in well
Fpr-rs3	0.93	enough cells in well
Sh3tc2	-1.14	enough cells in well
Cyp2d10	-0.25	enough cells in well
Lrrc28	-1.23	enough cells in well
Or2aj6	2.38	enough cells in well
Armcx3	0.59	enough cells in well
Vmn1r236	2.74	enough cells in well
Nisch	-0.04	enough cells in well
Exog	-0.54	enough cells in well
